{"sequences": {"note": "Chains of the proteins cited; added tags and fusions are not shown.", "UniProt Q99612": "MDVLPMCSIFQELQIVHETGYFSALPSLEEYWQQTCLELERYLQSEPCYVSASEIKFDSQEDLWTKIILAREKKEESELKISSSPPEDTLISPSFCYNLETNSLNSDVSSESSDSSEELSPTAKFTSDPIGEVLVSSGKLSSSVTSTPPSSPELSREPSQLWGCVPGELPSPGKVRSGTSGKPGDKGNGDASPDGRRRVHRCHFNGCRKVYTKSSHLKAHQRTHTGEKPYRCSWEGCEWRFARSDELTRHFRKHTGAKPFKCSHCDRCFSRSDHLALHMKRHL", "UniProt Q9Y6J9": "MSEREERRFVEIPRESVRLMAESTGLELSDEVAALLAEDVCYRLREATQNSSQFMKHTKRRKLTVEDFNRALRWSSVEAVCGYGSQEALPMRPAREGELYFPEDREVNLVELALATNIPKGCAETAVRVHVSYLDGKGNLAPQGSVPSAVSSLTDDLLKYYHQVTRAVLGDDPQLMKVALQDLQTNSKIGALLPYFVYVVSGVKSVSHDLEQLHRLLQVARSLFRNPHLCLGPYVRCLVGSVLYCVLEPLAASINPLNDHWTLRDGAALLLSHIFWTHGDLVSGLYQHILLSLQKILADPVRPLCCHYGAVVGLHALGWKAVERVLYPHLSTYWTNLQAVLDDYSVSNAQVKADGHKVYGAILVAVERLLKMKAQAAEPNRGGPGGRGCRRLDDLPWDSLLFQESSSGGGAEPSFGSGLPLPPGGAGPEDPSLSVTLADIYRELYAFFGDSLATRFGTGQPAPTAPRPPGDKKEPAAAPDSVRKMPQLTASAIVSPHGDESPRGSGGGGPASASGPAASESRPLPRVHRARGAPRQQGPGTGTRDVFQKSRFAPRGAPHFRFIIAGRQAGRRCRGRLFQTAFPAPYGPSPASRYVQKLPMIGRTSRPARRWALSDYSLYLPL"}, "source": "paper PMC11958781", "biological_target": "KLF6 (human (endogenous in HCT15-FR)) (UniProt Q99612)", "test": "affinity purification with mass spectrometry; immunoprecipitation followed by mass spectrometry (IP-MS); bait named as KLF6 only in the discussion", "note": "Results are given in words; binding and its absence hold for the method and conditions named. In cells and extracts the contact can be indirect. Here binding means that the protein was enriched with, or labelled near, the bait; the list need not be complete.", "data": [{"substance": "TAF6L (from UniProt Q9Y6J9 1-622)", "values": [{"measurement": "binding", "result": "binds"}]}]}
